No constants are given. Whether binding was seen depends on the method and setting. Some binding calls cover weakened binding; strength is not graded here.
T1: CBP80 (cap-binding protein 80, subunit of the cap-binding complex) (Arabidopsis thaliana) (UniProt Q9SIU2)
T1 sequence: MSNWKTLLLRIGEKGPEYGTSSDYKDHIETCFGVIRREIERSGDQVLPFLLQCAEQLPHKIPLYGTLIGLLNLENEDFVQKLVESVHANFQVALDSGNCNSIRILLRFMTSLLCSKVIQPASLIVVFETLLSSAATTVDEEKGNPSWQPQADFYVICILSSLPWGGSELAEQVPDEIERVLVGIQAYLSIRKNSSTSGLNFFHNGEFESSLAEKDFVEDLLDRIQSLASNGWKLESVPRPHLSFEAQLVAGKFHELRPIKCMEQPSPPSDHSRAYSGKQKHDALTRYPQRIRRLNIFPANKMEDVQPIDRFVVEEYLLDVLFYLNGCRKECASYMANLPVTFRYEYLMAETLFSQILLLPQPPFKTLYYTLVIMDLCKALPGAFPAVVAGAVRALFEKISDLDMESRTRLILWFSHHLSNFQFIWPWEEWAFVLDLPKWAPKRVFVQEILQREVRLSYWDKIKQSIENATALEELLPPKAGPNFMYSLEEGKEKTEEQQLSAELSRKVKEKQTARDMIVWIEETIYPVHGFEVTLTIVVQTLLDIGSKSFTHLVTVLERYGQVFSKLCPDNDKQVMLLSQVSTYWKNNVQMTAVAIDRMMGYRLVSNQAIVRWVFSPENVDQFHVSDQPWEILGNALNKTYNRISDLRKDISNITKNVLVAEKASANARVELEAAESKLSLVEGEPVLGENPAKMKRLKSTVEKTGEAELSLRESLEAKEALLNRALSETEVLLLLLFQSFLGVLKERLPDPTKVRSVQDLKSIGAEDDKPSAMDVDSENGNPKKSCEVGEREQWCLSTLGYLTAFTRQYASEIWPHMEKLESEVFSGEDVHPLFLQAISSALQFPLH


Biological target: T1, CBP80 (cap-binding protein 80, subunit of the cap-binding complex) (Arabidopsis thaliana)
Assay: two-hybrid; ProQuest Two-Hybrid System (Invitrogen), yeast strain Mav203; pBD-CBP80 co-transformed with pAD-CBP20 or its S245 mutants; growth on SD/-Trp-Leu-His with 10mM 3AT indicates interaction

| Binder | binding |
| --- | --- |
| CBP20^S245D (constitutive phosphorylation mimic form of CBP20) (protein, UniProt Q9XFD1 1-257) MASLFKEQAKLSAYRDRRFSGTQEEFDEALRASTTVYIGNVSFYTTEEQLYELFSRAGEIKKIIMGLDKNTKTPCGFCFVLFYSREDTEDAVKYISGTILDDRPIRVDFDWGFQEGRQWGRGRSGGQVRDEYRTDYDPARGGYGKLVQKELEAQRQLVDYGTGSLGAYPQAAPTNYGNGRRGGGNYGQGGQNRHGRGDYHRKRQRDDDRYGRDNSRRNTDHESRRDTDSDMRPEKNPRFRESGDDDDDGEDDRKRRS | binds |
| CBP20^S245E (constitutive phosphorylation mimic form of CBP20) (protein, UniProt Q9XFD1 1-257) MASLFKEQAKLSAYRDRRFSGTQEEFDEALRASTTVYIGNVSFYTTEEQLYELFSRAGEIKKIIMGLDKNTKTPCGFCFVLFYSREDTEDAVKYISGTILDDRPIRVDFDWGFQEGRQWGRGRSGGQVRDEYRTDYDPARGGYGKLVQKELEAQRQLVDYGTGSLGAYPQAAPTNYGNGRRGGGNYGQGGQNRHGRGDYHRKRQRDDDRYGRDNSRRNTDHESRRDTDSDMRPEKNPRFRESGDEDDDGEDDRKRRS | binds |

The next lines start with the values.

| binding | Binder |
| --- | --- |
| binds | cap binding protein 20 (CBP20) (protein, UniProt Q9XFD1 1-257) MASLFKEQAKLSAYRDRRFSGTQEEFDEALRASTTVYIGNVSFYTTEEQLYELFSRAGEIKKIIMGLDKNTKTPCGFCFVLFYSREDTEDAVKYISGTILDDRPIRVDFDWGFQEGRQWGRGRSGGQVRDEYRTDYDPARGGYGKLVQKELEAQRQLVDYGTGSLGAYPQAAPTNYGNGRRGGGNYGQGGQNRHGRGDYHRKRQRDDDRYGRDNSRRNTDHESRRDTDSDMRPEKNPRFRESGDSDDDGEDDRKRRS |
| binds | CBP20^S245A (constitutive de-phosphorylation mimic form of CBP20) (protein, UniProt Q9XFD1 1-257) MASLFKEQAKLSAYRDRRFSGTQEEFDEALRASTTVYIGNVSFYTTEEQLYELFSRAGEIKKIIMGLDKNTKTPCGFCFVLFYSREDTEDAVKYISGTILDDRPIRVDFDWGFQEGRQWGRGRSGGQVRDEYRTDYDPARGGYGKLVQKELEAQRQLVDYGTGSLGAYPQAAPTNYGNGRRGGGNYGQGGQNRHGRGDYHRKRQRDDDRYGRDNSRRNTDHESRRDTDSDMRPEKNPRFRESGDADDDGEDDRKRRS |
